Data as given in PubChem BioAssay AID2685 (National Center for Advancing Translational Sciences (NCATS), 2010).
The campaign covered roughly 320,000 compounds. About 2,100 (0.66%) were called active. The inconclusive results got no clear call from the source; some entries with a clear call stand among them for comparison. Calls follow the shape of the dose curve; as a rule, active = well fitted inhibition curve with a large enough effect in the signal ratio, with a control signal flat (not every such curve was filed as active); inconclusive = small, poorly fitted or top-dose-only effect, or effect the other way, or a change in a side signal; inactive = flat fitted curve, though single readings scatter; the % refers to the signal ratio. Potencies of inconclusive entries are doubtful fits and often do not repeat.

Assay: qHTS Assay for Lipid Storage Modulators in Drosophila S3 Cells
Settings: BODIPY lipid droplet fluorescence, 18-24 h, cells fed with added oleic acid; lipid storage change, negative = inhibition: at 46.1 µM (top of the series) unless noted
Method in brief: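 Drosophila S3 cells got compounds at several concentrations plus oleic acid (400 uM solution). Laser-scanning cytometry with 488 nm excitation read lipid droplets at 500-530 nm and cells at 575-640 nm. Percent activity was relative to 20 uM Triacsin C.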
% is scaled to controls: 0 for no effect and ±100 for the full control effect; potency is read from the fitted curve at half-maximal effect.

Row | SMILES | lipid storage change, negative = inhibition | Potency
1 | O=C(Cc1ccc(Cl)c(Cl)c1)N1CCOCC1 | inconclusive: 10.6% | –
2 | Cc1ccc(CN2CCN(Cc3c(C)nn(C(C)C)c3C)CC2CCO)o1 (stereo not drawn) | inconclusive: -4.86% | –
3 | CCCCc1cc(=O)oc2cc(OCC(=O)N(CC)CC)ccc12 | inconclusive: -7.3% | –
4 | O=C(NCC1CCCO1)/C(=C\c1cccc([N+](=O)[O-])c1)NC(=O)c1ccccc1 (stereo not drawn) | inconclusive: 3.96% | –
5 | COc1ccc(C)cc1C(=O)CCC(=O)N1CCN(c2ccccc2F)CC1 | inconclusive | –
6 | O=S1(=O)C=C(Sc2nnc(-c3ccccc3)o2)c2ccccc21 | – | inconclusive: 6.51 µM [cytotoxic, partial curve]
7 | O=C1C2Sc3[nH]c(=O)sc3C(c3cc([N+](=O)[O-])ccc3O)C2C(=O)N1c1ccccc1 (stereo not drawn) | – | inconclusive: 0.0146 µM [falling, full curve, poor fit]
8 | COC(=O)CSc1nnc(-c2ccc(S(=O)(=O)N3CCC(C)CC3)cc2)o1 | inconclusive: -44.1% | –
9 | O=C(COc1ccccc1[N+](=O)[O-])N1CCN(S(=O)(=O)c2ccccc2)CC1 | – | inconclusive: 5.8 µM [falling, single point]
10 | COc1ccc(-n2cc(C(=O)c3ccc4ccccc4c3O)cn2)cc1 | inconclusive: -38.2% | –
11 | Cc1ccccc1C(=O)OC1OC(=O)C(Cl)=C1Nc1ccc(C(=O)O)cc1 (stereo not drawn) | inconclusive: -22.8% | –
12 | C=CC(COCc1ccccc1)N(Cc1ccccc1)S(=O)(=O)c1ccccc1Br (stereo not drawn) | inconclusive: 18.8% | –
13 | COc1cc2c(cc1OC)C(C)N(C(=O)c1sccc1C)CC2 (stereo not drawn) | – | inconclusive: 29.1 µM [activator, single point]
14 | CCOc1ccc(-c2cc(N)n(S(=O)(=O)c3ccc(OC)cc3)n2)cc1 | inconclusive: 45.3% | –
15 | COc1cc(C(=O)/C=C/c2cccnc2)c([N+](=O)[O-])cc1OC | inconclusive: -22% | –
16 | COc1ccc(CN(CC2CCC(C(=O)O)CC2)C(=S)Nc2cc(C)cc(C)c2)cc1 (stereo not drawn) | inactive | –
17 | O=C(CC1C(=O)NCCN1Cc1ccccc1F)NC1CCCCCC1 (stereo not drawn) | – | inconclusive: 0.0046 µM [falling, full curve, poor fit]
18 | COc1ccccc1-c1cc(C(F)(F)F)nc(N2CCCC2)n1 | – | inconclusive: 0.116 µM [falling, full curve]
19 | Cc1ccc(OCCNS(=O)(=O)c2ccc(N3CCCC3=O)cc2)cc1 | inconclusive: -17.4% | –
20 | CN1C(C(=O)Nc2ccc(OC(F)(F)F)cc2)=CC(c2ccco2)=NS1(=O)=O | – | inconclusive: 29.1 µM [cytotoxic, single point]
21 | COc1ccc(NC(=O)c2ccc3ccccc3n2)cc1S(=O)(=O)Nc1ccccc1Cl | – | inconclusive: 32.6 µM [activator, single point]
22 | COC(=O)C1=C(C(=O)OC)SC2(S1)C(C(=O)OC)=C(C(=O)OC)SC1=C2c2cc(C)cc(C)c2NC1(C)C | inconclusive: 18.5% | –
23 | CCOC(=O)Cn1cc(Cl)cc(C(=O)Nc2ccccc2)c1=O | inconclusive: 10.1% | –
24 | O=C(CSc1nncc(=O)[nH]1)NC1CCCCC1 | – | inconclusive: 6.51 µM [falling, single point]

Row | SMILES | lipid storage change, negative = inhibition | Potency
25 | COc1ccc(CNc2ncnc3cc(Cl)ccc23)cc1 | inconclusive: -20.7% | –
26 | CSCC[C@H](NC(=O)c1ccc(Cl)c([N+](=O)[O-])c1)c1nc2ccccc2[nH]1 | – | inconclusive: 18.4 µM [falling, single point]
27 | Cc1ccc2cccc(NS(=O)(=O)c3ccccc3)c2n1 | inconclusive: -24.5% | –
28 | Cc1ccc2c(C)c(C(=O)N3CCN(C4CCS(=O)(=O)C4)CC3)oc2c1C (stereo not drawn) | – | inconclusive: 16.4 µM [falling, partial curve, poor fit]
29 | Cc1ccc(C2=NNC(c3ccc(Cl)cc3)=Nc3ccccc32)o1 | inconclusive: 29.4% | –
30 | c1ccc2c3c(cc(N4CCOCC4)c2c1)OC1(N2CCOCC2)CCCCC1O3 (stereo not drawn) | inconclusive: -65.8% | –
31 | COP(=O)(OC)c1nc(-c2cccc3ccccc23)oc1NCc1ccccc1 | – | inconclusive: 29.1 µM [falling, single point]
32 | O=S(=O)(c1cccc2nsnc12)N1CCN(C/C=C/c2ccccc2)CC1 | inactive | –
33 | N#CC1=C2Sc3ccccc3N2CCCC1=O | inconclusive: 19% | –
34 | Cc1nn2cc(-c3ccc(-c4ccccc4)cc3)nc2s1 | inconclusive: -58% | –
35 | CCC(=O)Nc1ccc(C(=O)NCc2ccccn2)cc1 | inconclusive: 120% | –
36 | COc1ccccc1N1CCN(C(=O)CN2C(=O)c3cccc4cccc(c34)C2=O)CC1 | – | inconclusive: 29.1 µM [falling, single point]
37 | O=S1(=O)N=C2CCCCCN2C(c2ccncc2)N1 (stereo not drawn) | inconclusive: -35.4% | –
38 | COc1ccc(NC(=O)c2sc(-c3ccccc3)nc2C)c(OC)c1 | inconclusive: 5.45% | –
39 | COc1ccccc1C(=O)Nc1c(C)n(C)n(-c2ccccc2)c1=O | inconclusive: 16.7% | –
40 | CC(C)C(NC(=O)c1ccc2c(c1)OCCO2)c1nc2ccccc2[nH]1 (stereo not drawn) | inconclusive: -21.3% | –
41 | CC(=O)Nc1ccc(NC(=O)C(=O)NCC(c2ccco2)N2CCc3ccccc3C2)cc1 (stereo not drawn) | – | inconclusive: 29.1 µM [cytotoxic, single point]
42 | CCOC(=O)Nc1sc(C(=O)N(CC)CC)c(C)c1C(=O)OCC | – | inconclusive: 0.184 µM [rising, full curve, poor fit]
43 | NS(=O)(=O)c1ccc(NC(=O)COC(=O)COc2ccc3ccccc3c2)cc1 | inconclusive: 0.595% | –
44 | CCOC(=O)N1CCC(n2c(=S)[nH]c3cc(OC)c(OC)cc3c2=O)CC1 | inconclusive: 5.99% | –
45 | O=C(CN1CCC(O)CC1)N1c2ccccc2C=Cc2ccccc21 | inactive | –
46 | COc1ccc(NC(=O)c2ccc(Cl)c(S(=O)(=O)N3CCc4ccccc4C3)c2)cn1 | inconclusive: -38.1% | –
47 | Cn1c(NC(=O)c2ccccc2NC(=O)C(C)(C)C)nc2ccccc21 | – | inconclusive: 1.03 µM [rising, partial curve]
48 | CC(=O)N1CCN(c2ccc(C(N)=O)cc2[N+](=O)[O-])CC1 | inconclusive: -82.5% | –

By substructure: those above with a thiophene ring, fused or not.
Row | SMILES | lipid storage change, negative = inhibition | Potency
13 | COc1cc2c(cc1OC)C(C)N(C(=O)c1sccc1C)CC2 (stereo not drawn) | – | inconclusive: 29.1 µM [activator, single point]
42 | CCOC(=O)Nc1sc(C(=O)N(CC)CC)c(C)c1C(=O)OCC | – | inconclusive: 0.184 µM [rising, full curve, poor fit]
